Test results taken from US4835185A, “Immunomodulator for improving commercial performance of domestic animals” (Iowa State University Research Foundation, Inc., priority 1987, dated 1989).
At least one compound was matched to its structure with a doubt left.

Legend:
[1] = Laying hens: egg production and egg yolk cholesterol; type: in vivo; conditions: laying chickens, general statement
Description: Laying hens (69 weeks of age) were randomly assigned to either a control diet or a diet containing 0.2 wt % KIC (Na). For the next 28 days feed consumption was recorded and eggs collected. Eggs were weighed and analyzed for egg yolk cholesterol. The feed composition is shown in Table C and the results in Table D. The total protein was about 18% on a dry matter basis, and the amount of leucine was about 9% of the protein. The control diet was the same except for the omission of the KIC.

[2] = Lamb trials: growth, feed efficiency, wool and carcass; type: in vivo, lambs (sheep)
Source text: The lambs used in Trial 1 consisted of medium-frame crossbred wethers and ewes weighing 26 to 31 kg. The lambs used in Trial 2 consisted of medium-framced crossbred rams weighing 18 to 25 kg. Each animal was raised as a single. The lambs were housed in a temperature controlled room in individual pens with nipple waterers. When received, the lamps were vaccinated for enterotoxemia. They were allowed to adjust to the pens and the environment for 10 days. One day before the trial began, the lambs were sheared and placed on their respective dietary treatments. The lamps were allotted blocking by weight and sex into two dietary treatment groups. Growth and feed consumption were measured bi-weekly. All lamb weights were taken after a 12 to 16 hour fast. The animals were slaughtered at 50 kg in the Iowa State University Meat laboratory facilities at Ames, Iowa. At slaughter, the lamb's internal organs and wool were weighed and sampled, loin eye area and back fat measured, and carcasses separated into fat, lean, and bone.
The SMB (soybean meal-containing) and the CGM (corn-gluten-containing) diets (compositions given in Table A) were fed twice per day in quantities ensuring that feed was before the lambs at all times. The diets were calculated to be equivalent to each other with respect to metabolizable protein, ether extract, fiber, and minerals with the exception of calcium and phosphorus. […] The CGM diet was calculated to contain slightly more energy (TDN 81.7 vs. 79.0, NEm 1.88 v. 1.86, Neg. 1.23 vs. 1.22). […] The soybean meal ingredient contained about 3.5 wt % leucine, while the corn gluten meal ingredient contained about 15 wt % leucine. The CGM diet was therefore higher in leucine than the SBM diet, containing an estimated 16 wt % leucine as compared with an estimated 8 wt % leucine based on total crude protein in the diet.
^(1) Feed ingredients given on wt % basis.
^(3) Diets containing calcium salt of alphaketoisocaproate (KIC).
^(1) Statistical analysis: *designates p < .05, a significant
^(2) Average daily (24 hrs.) gain (kilograms).
^(3) Kilograms feed per kilogram weight gain.
^(4) Amount of wool in grams.
^(5) Amount of back fat in inches.
^(6) Amount of lean meat in kilograms.
^(1)- (8) See Table B, except cholesterol data is for lean tissue

[3] = Feedlot steers: performance and carcass; type: in vivo, steers (cattle)
Source text: Seventy-two medium-frame steers, with an average weight of 578 lbs., were allotted to 12 pens of 6 animals each. A common basal diet was fed ad libitum to all cattle. This consisted of 48.9% cracked corn, 24.4% ground corn cobs, 17.8% expeller Soybean meal, 7.0% molasses (liquid), 1.3% limestone, 0.25% dicalcium phosphate, 2% salt, 0.02% trace mineral premix, and 0.1% vitamin A premix for the first 58 days of the experiment, and was changed to 54.3% cracked corn and 12.8% expeller soybean meal for the remaining 103 days of the experiment. Three pens were assigned to each treatment. The treatments consisted of four levels of Ca-KIC in a pelleted supplement: 0%, 0.02%, 0.07%, and 0.20% of the basal diet (0.05% control pellets, 0.04% KIC pellets, 0.14% KIC pellets, and 0.40% KIC pellets). The pellets were preweighted and top-dressed on the basal diet twice daily. After 58 days, the cattle on the 0.20% KIC were removed from the experiment. The cattle were not implanted with a growth promotant nor were ionophores included in the diet. The cattle were placed in the feedlot and fed a growing ration for 5 weeks prior to the start of the experiment. The cattle were weighed on 2 consecutive days at the beginning and end of the experiment, and every 14 days during the trial. The cattle were sold through a commercial beef processing plant when they were approaised by visual examination to grade Choice. Loin eye area and fat thickness over the loin were measured on each carcass. Quality and yield grades, and percent kidney, heart, and lepvic (KHP) fat were estimated by the federal graders.
Therefore, an attempt was made to protect KIC from ruminal degradation. KIC pellets, resistant to rumen degradation, were made by mixing zein, ethanol, KIC, limestone, bentonite and water in a ratio of 8.3:7.4:5.2:3:2:1. This mixture was extruded through a die of 15 mm directly into a vat of liquid nitrogen. The shattered pellets were spread out and allowed to air-dry for two days. The dried pellets were coated with zein (2% w/w) by spraying with a 30% zein solution made in 80% ethanol. The pellets again were air-dried. Control pellets were made similar to the KIC pellets except that the mixture was zein, limestone, ethanol, bentonite and water in a ratio of 12:12:7.5:2.7:1. When KIC pellets were placed in the rumen (nylon bag technique), 45% of the KIC added was present in the bags after 36 hr of rumen digestion.
KIC was obtained from SOBAC, Paris, France. Zein was purchased from Freeman Industries, Tuckahoe, N.Y. Each experiment was statistically analyzed by analysis of variance with three pens per treatment.

[4] = cited from earlier work
[5] = Feed intake in the immune function experiments; type: in vivo, sheep and cattle; conditions: control vs KIC-treated, any experiment
[6] = Broiler chickens: KIC level in diet; type: in vivo, young chickens; conditions: 0.5 to 1% KIC in diet

## CC(C)CC(=O)C(=O)O [KIC, alpha-ketoisocaproate]
[1]
  cholesterol content of the egg yolks: can be reduced
  number of eggs laid: can be increased
[2]; Trial 1, CGM diets
  performance: did not perform as well
[2]; Trial 1, SBM diets
  gain and feed efficiency: increased gain and feed efficiency
[2]; Trial 1, both SBM and CGM diets
  wool growth: increased wool growth
[2]; Trial 2, CGM diet
  performance: poorer performance
[2]; Trial 2, SBM diet
  performance: improved performance
[2]; Trial 2, both diets
  wool growth: improved
[3]; 161-day trial
  Daily feed intake: tended to be increased
[3]; KIC in the diet
  Carcass weight: not altered
  KHP fat: not altered
  backfat thickness: not altered
  dressing percent: not altered
  loin eye area: not altered
  number of cattle grading choice: increased
  yield grade: not altered
[3]; first 58 days
  Daily feed intake: not significantly altered
[4]; Chow et al.
  reduction of feed efficiency on substitution of KIC for leucine: approximately 33%
[4]; equimolar KIC in diet, Chawla et al.
  weight loss on leucine-deficient diet: could be prevented
[4]; oral dosing, rats, Abras and Walser
  efficiency of utilization of nitrogen and minerals: increased efficiency of utilization of nitrogen and minerals was apparently observed
[4]; rats, Boebel et al.
  efficiency of KIC with reference to leucine: about 56%
[5]
  Feed intake: not different
[6]
  added benefit of higher levels: have not been found to provide any added benefit
